Test results: the supplement of paper PMC10849652
The other results are listed elsewhere or left out.

Protein sequences, listed by entry. Tags and fused reporters are not part of them. Lines headed by an entry give the natural chain unless they say otherwise; changes in a name come on top.
UniProt Q6PJ69: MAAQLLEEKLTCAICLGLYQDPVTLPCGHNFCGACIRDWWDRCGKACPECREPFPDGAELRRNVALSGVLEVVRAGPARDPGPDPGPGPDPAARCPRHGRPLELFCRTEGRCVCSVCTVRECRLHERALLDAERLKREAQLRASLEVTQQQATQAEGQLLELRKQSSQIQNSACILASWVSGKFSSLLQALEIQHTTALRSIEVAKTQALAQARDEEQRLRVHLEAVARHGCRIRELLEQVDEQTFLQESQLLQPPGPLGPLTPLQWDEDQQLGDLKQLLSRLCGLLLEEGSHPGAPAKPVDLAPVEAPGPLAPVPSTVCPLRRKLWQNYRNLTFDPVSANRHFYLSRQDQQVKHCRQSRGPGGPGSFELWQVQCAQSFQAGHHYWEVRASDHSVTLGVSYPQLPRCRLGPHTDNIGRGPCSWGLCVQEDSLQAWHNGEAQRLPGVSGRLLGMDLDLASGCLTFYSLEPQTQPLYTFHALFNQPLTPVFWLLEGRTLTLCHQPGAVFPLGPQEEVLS
UniProt Q14142: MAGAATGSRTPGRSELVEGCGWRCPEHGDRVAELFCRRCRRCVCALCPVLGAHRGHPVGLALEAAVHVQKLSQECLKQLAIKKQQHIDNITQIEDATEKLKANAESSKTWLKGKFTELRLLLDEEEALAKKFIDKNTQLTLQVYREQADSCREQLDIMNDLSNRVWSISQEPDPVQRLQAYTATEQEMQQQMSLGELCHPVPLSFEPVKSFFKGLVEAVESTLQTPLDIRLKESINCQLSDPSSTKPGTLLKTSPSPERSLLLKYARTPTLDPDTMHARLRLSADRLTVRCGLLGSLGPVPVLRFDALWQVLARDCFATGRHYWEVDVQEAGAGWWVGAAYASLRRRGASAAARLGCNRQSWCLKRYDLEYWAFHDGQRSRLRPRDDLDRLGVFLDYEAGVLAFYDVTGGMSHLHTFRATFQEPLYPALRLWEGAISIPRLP
UniProt Q07912: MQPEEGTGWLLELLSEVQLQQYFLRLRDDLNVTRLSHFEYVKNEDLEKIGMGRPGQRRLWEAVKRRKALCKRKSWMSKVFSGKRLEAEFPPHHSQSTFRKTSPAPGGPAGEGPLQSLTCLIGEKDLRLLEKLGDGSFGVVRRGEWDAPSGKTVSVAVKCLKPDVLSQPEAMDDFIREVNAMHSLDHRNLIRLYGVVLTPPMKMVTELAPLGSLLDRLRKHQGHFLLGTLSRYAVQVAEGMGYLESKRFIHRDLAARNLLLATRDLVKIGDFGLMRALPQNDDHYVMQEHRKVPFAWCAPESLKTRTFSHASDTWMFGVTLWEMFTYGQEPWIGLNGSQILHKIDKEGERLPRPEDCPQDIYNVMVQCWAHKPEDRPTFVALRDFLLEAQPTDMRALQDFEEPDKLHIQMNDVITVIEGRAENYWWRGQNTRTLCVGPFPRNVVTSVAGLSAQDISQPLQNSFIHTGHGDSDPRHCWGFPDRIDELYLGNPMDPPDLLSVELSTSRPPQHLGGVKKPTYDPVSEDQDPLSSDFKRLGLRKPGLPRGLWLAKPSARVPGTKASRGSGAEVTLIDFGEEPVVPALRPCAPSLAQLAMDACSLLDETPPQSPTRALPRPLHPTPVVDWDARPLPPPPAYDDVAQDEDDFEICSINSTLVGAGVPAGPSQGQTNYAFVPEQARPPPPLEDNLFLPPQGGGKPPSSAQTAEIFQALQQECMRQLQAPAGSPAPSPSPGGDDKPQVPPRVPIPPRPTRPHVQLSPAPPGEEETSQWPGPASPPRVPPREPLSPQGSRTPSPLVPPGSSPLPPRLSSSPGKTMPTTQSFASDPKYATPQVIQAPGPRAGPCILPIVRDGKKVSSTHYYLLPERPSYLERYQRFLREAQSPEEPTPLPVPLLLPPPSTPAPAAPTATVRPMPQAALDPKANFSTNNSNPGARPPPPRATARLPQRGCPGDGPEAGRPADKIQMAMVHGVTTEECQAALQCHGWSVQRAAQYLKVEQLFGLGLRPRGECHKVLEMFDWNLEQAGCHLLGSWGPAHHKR
UniProt O75865, whole entry, looked up: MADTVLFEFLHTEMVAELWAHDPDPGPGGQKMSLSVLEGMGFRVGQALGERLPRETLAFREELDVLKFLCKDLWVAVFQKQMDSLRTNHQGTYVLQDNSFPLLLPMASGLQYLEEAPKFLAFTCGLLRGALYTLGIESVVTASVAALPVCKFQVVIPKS
UniProt Q9UHF7: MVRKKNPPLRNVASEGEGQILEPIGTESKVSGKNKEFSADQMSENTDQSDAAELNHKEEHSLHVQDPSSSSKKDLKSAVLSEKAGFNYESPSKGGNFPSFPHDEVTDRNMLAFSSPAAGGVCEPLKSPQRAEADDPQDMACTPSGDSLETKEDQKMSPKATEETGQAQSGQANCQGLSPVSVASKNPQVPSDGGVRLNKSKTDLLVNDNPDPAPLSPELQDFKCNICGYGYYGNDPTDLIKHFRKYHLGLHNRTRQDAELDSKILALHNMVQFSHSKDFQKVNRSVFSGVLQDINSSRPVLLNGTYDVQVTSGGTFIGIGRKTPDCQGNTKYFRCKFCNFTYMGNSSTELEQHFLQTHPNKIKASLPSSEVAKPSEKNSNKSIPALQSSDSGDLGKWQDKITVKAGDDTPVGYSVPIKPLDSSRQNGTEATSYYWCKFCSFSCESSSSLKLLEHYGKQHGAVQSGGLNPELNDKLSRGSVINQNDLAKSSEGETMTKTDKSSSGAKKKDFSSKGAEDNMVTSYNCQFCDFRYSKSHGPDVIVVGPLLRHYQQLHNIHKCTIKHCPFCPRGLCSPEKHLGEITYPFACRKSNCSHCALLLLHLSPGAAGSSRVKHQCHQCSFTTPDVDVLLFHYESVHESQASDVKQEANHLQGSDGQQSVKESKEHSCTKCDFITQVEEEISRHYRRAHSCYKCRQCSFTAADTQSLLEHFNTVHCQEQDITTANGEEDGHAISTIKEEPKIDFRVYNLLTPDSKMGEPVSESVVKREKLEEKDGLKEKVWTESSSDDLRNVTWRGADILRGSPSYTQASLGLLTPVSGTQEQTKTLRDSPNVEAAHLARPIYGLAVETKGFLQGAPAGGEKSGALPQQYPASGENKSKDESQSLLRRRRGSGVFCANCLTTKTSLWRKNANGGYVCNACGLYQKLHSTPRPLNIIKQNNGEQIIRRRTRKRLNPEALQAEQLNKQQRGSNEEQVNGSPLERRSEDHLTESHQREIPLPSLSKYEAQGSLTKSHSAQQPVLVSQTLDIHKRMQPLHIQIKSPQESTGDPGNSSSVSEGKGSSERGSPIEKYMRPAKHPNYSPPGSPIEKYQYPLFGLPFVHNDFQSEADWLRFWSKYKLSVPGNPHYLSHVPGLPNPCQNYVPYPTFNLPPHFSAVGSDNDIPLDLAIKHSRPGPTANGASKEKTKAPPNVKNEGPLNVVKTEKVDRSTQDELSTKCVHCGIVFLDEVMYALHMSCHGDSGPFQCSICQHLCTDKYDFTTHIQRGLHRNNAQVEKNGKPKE
UniProt Q15025: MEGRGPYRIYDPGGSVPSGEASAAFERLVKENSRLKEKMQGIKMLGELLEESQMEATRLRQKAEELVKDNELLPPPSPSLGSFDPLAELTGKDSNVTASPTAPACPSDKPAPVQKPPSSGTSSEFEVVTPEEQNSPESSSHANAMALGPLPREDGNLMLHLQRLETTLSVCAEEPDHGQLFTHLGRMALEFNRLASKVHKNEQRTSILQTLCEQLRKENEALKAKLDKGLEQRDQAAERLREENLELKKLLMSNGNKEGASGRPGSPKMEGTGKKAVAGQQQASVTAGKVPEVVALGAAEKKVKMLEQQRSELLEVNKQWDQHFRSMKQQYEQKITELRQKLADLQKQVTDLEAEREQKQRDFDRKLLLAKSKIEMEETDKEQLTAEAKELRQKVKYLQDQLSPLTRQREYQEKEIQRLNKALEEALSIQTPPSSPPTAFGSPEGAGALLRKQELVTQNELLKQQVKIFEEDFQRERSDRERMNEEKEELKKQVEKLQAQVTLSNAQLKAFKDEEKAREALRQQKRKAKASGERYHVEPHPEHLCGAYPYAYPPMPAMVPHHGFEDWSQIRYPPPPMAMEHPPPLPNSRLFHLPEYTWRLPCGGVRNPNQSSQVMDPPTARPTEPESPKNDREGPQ
UniProt Q12815: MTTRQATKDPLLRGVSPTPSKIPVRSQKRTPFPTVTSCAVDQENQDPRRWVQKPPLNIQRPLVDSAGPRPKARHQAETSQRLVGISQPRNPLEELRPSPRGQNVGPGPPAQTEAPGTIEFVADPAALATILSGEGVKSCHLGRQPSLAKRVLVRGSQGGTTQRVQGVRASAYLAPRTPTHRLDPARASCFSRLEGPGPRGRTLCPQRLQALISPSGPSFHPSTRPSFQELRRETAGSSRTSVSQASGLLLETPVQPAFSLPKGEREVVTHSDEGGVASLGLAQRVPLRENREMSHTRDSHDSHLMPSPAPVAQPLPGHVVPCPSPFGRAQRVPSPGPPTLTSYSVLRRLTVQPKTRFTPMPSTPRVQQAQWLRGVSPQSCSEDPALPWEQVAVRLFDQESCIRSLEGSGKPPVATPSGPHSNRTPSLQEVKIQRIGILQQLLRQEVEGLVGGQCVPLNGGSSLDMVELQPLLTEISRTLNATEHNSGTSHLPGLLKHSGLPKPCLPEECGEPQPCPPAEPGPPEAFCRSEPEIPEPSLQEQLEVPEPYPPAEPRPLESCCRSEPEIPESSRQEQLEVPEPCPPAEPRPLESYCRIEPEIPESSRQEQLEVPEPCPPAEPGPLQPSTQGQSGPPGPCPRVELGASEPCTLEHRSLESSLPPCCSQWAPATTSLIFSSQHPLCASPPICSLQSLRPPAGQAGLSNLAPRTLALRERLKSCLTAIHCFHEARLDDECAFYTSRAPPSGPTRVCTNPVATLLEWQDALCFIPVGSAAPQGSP
UniProt Q8TDR0: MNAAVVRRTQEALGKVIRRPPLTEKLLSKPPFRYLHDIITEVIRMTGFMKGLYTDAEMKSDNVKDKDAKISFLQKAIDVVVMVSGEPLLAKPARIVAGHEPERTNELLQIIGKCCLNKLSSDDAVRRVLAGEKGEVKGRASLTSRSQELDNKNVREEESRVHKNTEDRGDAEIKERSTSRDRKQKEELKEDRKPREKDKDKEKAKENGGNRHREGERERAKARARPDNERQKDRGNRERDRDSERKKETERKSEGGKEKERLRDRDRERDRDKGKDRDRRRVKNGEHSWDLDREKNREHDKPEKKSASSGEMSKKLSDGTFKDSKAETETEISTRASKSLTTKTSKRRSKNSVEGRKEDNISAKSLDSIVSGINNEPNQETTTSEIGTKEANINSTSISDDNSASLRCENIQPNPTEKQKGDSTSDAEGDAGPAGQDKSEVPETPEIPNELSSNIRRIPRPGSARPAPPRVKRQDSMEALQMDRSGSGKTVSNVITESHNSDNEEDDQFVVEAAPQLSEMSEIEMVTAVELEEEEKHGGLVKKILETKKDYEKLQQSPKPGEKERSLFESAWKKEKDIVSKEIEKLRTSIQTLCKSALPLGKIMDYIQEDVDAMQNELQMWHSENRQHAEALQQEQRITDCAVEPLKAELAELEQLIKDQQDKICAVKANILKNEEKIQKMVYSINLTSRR
UniProt P14373: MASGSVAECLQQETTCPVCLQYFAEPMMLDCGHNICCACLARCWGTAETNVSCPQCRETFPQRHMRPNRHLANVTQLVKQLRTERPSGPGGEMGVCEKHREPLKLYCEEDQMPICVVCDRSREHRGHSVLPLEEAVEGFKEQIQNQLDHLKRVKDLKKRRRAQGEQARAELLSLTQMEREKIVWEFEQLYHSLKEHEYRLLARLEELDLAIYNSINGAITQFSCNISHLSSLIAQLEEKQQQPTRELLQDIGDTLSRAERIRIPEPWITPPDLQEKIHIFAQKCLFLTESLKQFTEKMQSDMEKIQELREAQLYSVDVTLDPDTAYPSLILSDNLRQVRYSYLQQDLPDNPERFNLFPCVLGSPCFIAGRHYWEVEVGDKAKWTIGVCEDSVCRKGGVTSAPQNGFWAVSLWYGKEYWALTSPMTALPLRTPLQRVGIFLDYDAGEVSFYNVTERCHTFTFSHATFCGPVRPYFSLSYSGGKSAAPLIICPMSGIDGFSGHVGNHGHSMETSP
UniProt Q96GJ1: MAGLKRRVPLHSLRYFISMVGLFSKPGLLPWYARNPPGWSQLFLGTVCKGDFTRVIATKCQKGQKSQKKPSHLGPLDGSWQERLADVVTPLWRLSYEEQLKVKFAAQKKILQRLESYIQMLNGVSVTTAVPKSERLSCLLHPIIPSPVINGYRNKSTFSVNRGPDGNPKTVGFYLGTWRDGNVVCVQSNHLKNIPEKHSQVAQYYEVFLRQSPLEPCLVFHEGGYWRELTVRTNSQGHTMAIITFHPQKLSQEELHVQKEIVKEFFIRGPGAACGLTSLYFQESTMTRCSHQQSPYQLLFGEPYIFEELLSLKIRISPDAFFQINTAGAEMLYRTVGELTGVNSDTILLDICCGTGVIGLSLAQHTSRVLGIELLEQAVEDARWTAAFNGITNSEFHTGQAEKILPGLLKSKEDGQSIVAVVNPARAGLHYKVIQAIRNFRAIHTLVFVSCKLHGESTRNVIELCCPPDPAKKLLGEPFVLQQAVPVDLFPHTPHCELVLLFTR

Assays:
Assay in all cases: log2 fold change, soluble protein after heating vs DMSO (PISA); higher = thermal stabilisation; K562 cells, 10 uM, 30 min; active = over 0.2 and 3.5 SD of the protein, either way, in both replicates (recomputed)
[1] = compound: C[C@@H](Oc1cc(-c2cnn(C3CCNCC3)c2)cnc1N)c1c(Cl)ccc(F)c1Cl [crizotinib]
Outline: (§1)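 Thermal stability values are relative to control samples and come from duplicates. They are expressed as log2 fold changes. For measurement, K562 cells (2×10^6 cells/mL) received 10 μM compound for 30 min, and aliquots were heated for 3 min over 48°C-58°C, pooled, and extracted at 4°C in PBS with 0.5% NP-40. Soluble protein, the supernatant after 21,000xg for 90 min, was quantified by TMTpro 16plex LC-MS/MS with equalised channel sums.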

[2] = compound: C[C@@H]1COCCN1C2=NC(=NC(=C2)C3(CC3)S(=O)(=O)C)C4=C5C=CNC5=CC=C4
Outline: as §1

[3] = compound: C[C@H](Nc1ncnc2nc[nH]c12)c1cc2cccc(Cl)c2c(=O)n1-c1ccccc1 [duvelisib]
Outline: as §1

[4] = compound: Cc1cc(Nc2cc(CN3CCOCC3)c3nc(C)c(Cc4ccc(Cl)cc4F)n3n2)n[nH]1 [gandotinib]
Outline: as §1

[5] = compound: Cc1cc(Nc2cc(N3CCN(C)CC3)nc(Sc3ccc(NC(=O)C4CC4)cc3)n2)n[nH]1 [tozasertib]
Outline: as §1

[6] = compound: Cc1cc(SCc2sc(-c3ccc(C(F)(F)F)cc3)nc2C)ccc1OCC(=O)O
Outline: as §1

[7] = compound: Cc1ccc(-n2nc(C(C)(C)C)cc2NC(=O)Nc2ccc(OCCN3CCOCC3)c3ccccc23)cc1 [doramapimod]
Outline: as §1

[8] = compound: Cc1ccc(C(=O)N(CCCN)[C@@H](c2nc3cc(Cl)ccc3c(=O)n2Cc2ccccc2)C(C)C)cc1 [ispinesib]
Outline: as §1

[9] = compound: Cc1ccc(NC(=O)c2ccc(CN3CC[C@H](N(C)C)C3)c(C(F)(F)F)c2)cc1Nc1nccc(-c2cncnc2)n1 [bafetinib]
Outline: as §1

[10] = compound: Cc1cccc(CC(=O)N2CCc3c2ccc(-c2cn(C)c4ncnc(N)c24)c3F)n1
Outline: as §1

[11] = compound: Cc1cn(-c2cc(NC(=O)c3ccc(C)c(Nc4nccc(-c5cccnc5)n4)c3)cc(C(F)(F)F)c2)cn1 [nilotinib]
Outline: as §1

[12] = compound: Cc1nc(Nc2n[nH]c3c2CN(C(=O)N[C@H](CN(C)C)c2ccccc2)C3(C)C)c2sccc2n1
Outline: as §1

[13] = compound: Cc1nc(Nc2ncc(C(=O)Nc3c(C)cccc3Cl)s2)cc(N2CCN(CCO)CC2)n1 [dasatinib]
Outline: as §1

[14] = compound: Cc1ncc(-c2ccnc(Nc3ccc(S(C)(=O)=O)cc3)n2)n1C(C)C
Outline: as §1

[15] = compound: Cn1cc(-c2ccc3nnc(C(F)(F)c4ccc5ncccc5c4)n3n2)cn1
Outline: as §1

[16] = compound: FC(F)(F)c1ccc(/C=C/c2nc(COc3ccc(CCCCn4ccnn4)cc3)co2)cc1 [mubritinib]
Outline: as §1

[17] = compound: C[C@H](C1=CC=C(C=C1)C(=O)NC2=C3C=CNC3=NC=C2)N
Outline: as §1

[18] = compound: Cn1cc(-c2ccc3c(c2)CCN3C(=O)Cc2cccc(C(F)(F)F)c2)c2c(N)ncnc21
Outline: as §1

[19] = compound: CS(=O)(=O)c1ccc(-c2cnc(N)c(C(=O)Nc3ccccc3)n2)cc1
Outline: as §1

[20] = compound: Cn1cncc1[C@@](N)(c1ccc(Cl)cc1)c1ccc2c(c1)c(-c1cccc(Cl)c1)cc(=O)n2C [tipifarnib]
Outline: as §1

Measured: log2 fold change

TRIP12 isoform 3 (UniProt Q14669)
inactive: [1] 0.011 | [2] -0.022 | [3] -0.11 | [4] -0.097 | [5] 0.056 | [6] 0.074 | [7] 0.004 | [8] 0.137 | [9] 0.073 | [10] -0.059 | [11] 0.031 | [12] -0.018 | [13] -0.352 | [14] 0.021 | [15] 0.168 | [16] 0.091

TRIM65 (UniProt Q6PJ69)
inactive: [1] -0.09 | [17] 0.302 | [3] 0.001 | [6] -0.301 | [7] 0.049 | [8] -0.101 | [13] 0.18 | [18] 0.003 | [15] -0.045

TPRA1 (UniProt Q86W33)
inactive: [19] -0.036 | [2] 0.213 | [4] 0.137 | [10] 0.046 | [11] 0.099 | [12] -0.153 | [14] 0.058 | [16] 0.013

TRADD (UniProt Q15628)
inactive: [2] 0.083 | [3] 0.163 | [6] 0.098 | [8] 0.033 | [11] -0.595 | [12] -0.246 | [13] -0.047 | [14] 0.032 | [15] -0.219 | [16] 0.163

TRIM14 (UniProt Q14142)
inactive: [11] 0.042 | [12] -0.124 | [14] -0.342

TNK2 isoform 3 (UniProt Q07912)
inactive: [3] 0.057 | [6] -0.017 | [9] -0.07 | [13] -0.015

TRAPPC6A isoform 2 (UniProt O75865)
inactive: [17] -0.136 | [9] 0.028 | [11] 0.126 | [12] -0.204 | [14] -0.013 | [18] 0.19 | [20] -0.459 | [16] 0.17

TRIM21 (UniProt P19474)
inactive: [17] 0.209 | [3] -0.047 | [5] -0.14 | [6] 0.102 | [9] 0.054 | [11] 0.113 | [12] -0.392 | [13] -0.142 | [14] -0.527 | [18] 0.122 | [20] -0.049 | [16] 0.136

TRAPPC2 isoform 3 (UniProt P0DI81)
inactive: [17] -0.024 | [3] 0.03 | [4] 0.04 | [5] -0.117 | [6] 0.026 | [8] -0.094 | [9] -0.05 | [10] -0.066 | [11] 0.017 | [12] -0.022 | [13] -0.021 | [14] -0.076 | [18] 0.001 | [15] -0.031 | [20] -0.041 | [16] -0.007

TRPM4 (UniProt Q8TD43)
inactive: [19] -0.001 | [2] 0.19 | [3] -0.151 | [6] 0.171 | [13] -0.131

TRPS1 isoform 2 (UniProt Q9UHF7)
inactive: [17] 0.061 | [18] -0.102

TRIM29 (UniProt Q14134)
inactive: [16] 0.016

TNIP1 (UniProt Q15025)
inactive: [19] 0.053 | [2] 0.024 | [5] 0.078 | [8] 0.007 | [9] -0.076 | [15] -0.029 | [20] 0.063 | [16] 0.3

TRA2A (UniProt Q13595)
inactive: [5] -0.113 | [9] -0.085 | [11] -0.115 | [12] -0.061 | [14] -0.104

6 successive records already listed:
TRAPPC2 isoform 3 (UniProt P0DI81)
inactive: [17] -0.024 | [3] 0.03 | [4] 0.04 | [5] -0.117 | [6] 0.026 | [8] -0.094 | [9] -0.05 | [10] -0.066 | [11] 0.017 | [12] -0.022 | [13] -0.021 | [14] -0.076 | [18] 0.001 | [15] -0.031 | [20] -0.041 | [16] -0.007

TRPM4 (UniProt Q8TD43)
inactive: [19] -0.001 | [2] 0.19 | [3] -0.151 | [6] 0.171 | [13] -0.131

TRPS1 isoform 2 (UniProt Q9UHF7)
inactive: [17] 0.061 | [18] -0.102

TRIM29 (UniProt Q14134)
inactive: [16] 0.016

TNIP1 (UniProt Q15025)
inactive: [19] 0.053 | [2] 0.024 | [5] 0.078 | [8] 0.007 | [9] -0.076 | [15] -0.029 | [20] 0.063 | [16] 0.3

TRA2A (UniProt Q13595)
inactive: [5] -0.113 | [9] -0.085 | [11] -0.115 | [12] -0.061 | [14] -0.104

Continuation:

TPD52 isoform 3 (UniProt P55327)
inactive: [3] -0.02 | [6] -0.218 | [9] 0.207 | [13] 0.036

TNIK isoform 3 (UniProt Q9UKE5)
inactive: [1] -0.083 | [17] 0.047 | [3] 0.07 | [4] 0.027 | [5] -0.051 | [6] 0.019 | [7] 0.098 | [8] -0.118 | [9] 0.046 | [10] -0.005 | [13] -0.072 | [18] 0.1 | [15] -0.013 | [20] -0.116 | [16] 0.053

TRAF3 (UniProt Q13114)
inactive: [8] 0.2 | [15] 0.051

TROAP (UniProt Q12815)
inactive: [2] -0.086 | [4] -0.019 | [8] -0.267 | [9] -0.126 | [10] -0.015 | [15] -0.194

TNRC6A (UniProt Q8NDV7)
inactive: [16] 0.022

TRMT5 (UniProt Q32P41)
inactive: [1] 0.097 | [2] 0.174 | [4] -0.256 | [5] -0.172 | [7] 0.147 | [9] 0.041 | [10] 0.176 | [11] 0.111 | [12] -0.061 | [14] 0.219

TRIM33 isoform 2 (UniProt Q9UPN9)
inactive: [19] -0.086 | [2] 0.122 | [11] -0.464 | [12] -0.096 | [14] -0.034 | [16] 0.129

TRAF3IP1 (UniProt Q8TDR0)
inactive: [1] 0.074 | [17] -0.002 | [3] 0.145 | [6] -0.123 | [7] 0.085 | [8] -0.101 | [13] -0.193 | [18] 0.111 | [15] 0.017

TPD52L2 isoform 3 (UniProt O43399)
inactive: [2] 0.547 | [4] -0.041 | [5] 0.022 | [10] 0.14 | [11] -0.173 | [12] 0.23 | [14] -0.109 | [16] -0.232

TRPM7 (UniProt Q96QT4)
inactive: [1] 0.026 | [2] -0.142 | [17] 0.164 | [3] -0.046 | [4] 0.097 | [5] -0.002 | [6] 0.04 | [7] 0.028 | [8] 0.03 | [9] -0.118 | [10] 0.004 | [13] -0.026 | [18] 0.034 | [15] 0.046 | [20] -0.01 | [16] -0.024

TRIM27 (UniProt P14373)
inactive: [4] 0.053 | [10] -0.149

TPRG1L (UniProt Q5T0D9)
inactive: [19] 0.052 | [2] -0.042 | [5] -0.252 | [8] -0.149 | [11] -0.094 | [12] -0.086 | [14] -0.023 | [15] -0.121 | [20] -0.042 | [16] 0.07

TRMT2B (UniProt Q96GJ1)
inactive: [17] 0.024 | [3] -0.013 | [4] 0.014 | [5] 0.088 | [6] 0.051 | [8] 0.016 | [9] 0.165 | [10] -0.027 | [11] -0.001 | [12] -0.003 | [13] -0.134 | [14] 0.129 | [18] -0.016 | [15] -0.019 | [20] 0.139 | [16] 0.016

TNXB isoform 4 (UniProt P22105)
inactive: [1] -0.022 | [7] 0.037 | [16] 0.028
